Assay results from patent EP0627444B1, “Monoacetic derivatives of the peptides leu-phe-ala and ala-leu-phe and their use in identifying and destroying tumour cells, viruses and virus-carrying cells” (priority 1993, dated 1998).
Where “and” joins values, the source holds several entries; their conditions need not be identical. Equal entries are not always repeated. At least one peptide structure holds a part that was inferred or is arguable (an end, a ring closure or a residue). Where a SMILES comes first, the peptide text is derived from it.

Columns and labels:
NK lymphocytes = experiment: Activation test for NK lymphocytes assessed by means of rosette formation; assay type: in vivo, female mice belonging to BALB/C strain; conditions: 17.5 mg/Kg
Description: In carrying out such a test, all six isomers of the monoacetic derivative of the peptide were used, individually, both in normoergic (germ free) animals (lot A) and in animals previously immunized with muramyl dipeptide (lot B). The method and results of the test are hereinafter reported.
A number of groups, each consisting of 18 randomized animals, were inoculated with 0.1 ml/each of normal saline solution (controls) or 0.1 ml/each of monoacetic peptide in its 6 possible isomers dissolved in normal saline solution. The 17.5 mg/kg dose administered to the animals corresponds to 1/20 of the LD found with respect to these peptides.
Treated and control animals were sacrificed in groups of 6 on the 11th, 13th and 18th day after the inoculation of the normal saline solution or of the peptide. […]
Cell survival was assessed by means of the supravital staining technique with trypan blue. […]
FCS, at a 10% ratio, was added to the above mentioned suspension. Following 5 minutes of incubation at +37 °C and 5 minutes of centrifugation at 200 rpm, the samples were incubated at +4 °C for 18 hours prior to reading the results.
The lymphocytes encircled by 3 or more ram's erythrocytes were considered as rosette-forming lymphocytes. The significance was assessed by means of Student's "T" test. […]

[1] = system: parenchymal organs (such as the spleen, etc.); experiment: Proliferation processes in parenchymal organs, tritiated thymidine; assay type: in vivo, mice belonging to BALB/C strain
Lewis Lung Carcinoma [2] = experiment: Lewis Lung Carcinoma, first set of experiments; assay type: in vivo, mice; conditions: 17.5 mg/Kg at time 0 and day 14
Lewis Lung Carcinoma [3] = experiment: Lewis Lung Carcinoma, fourth set of experiments; assay type: in vivo, female mice C57Bl/6; conditions: for meta, AVG / wt (tumour mass), AVG / meta (metastases in lungs): day 18; for meta (metastases in lungs) / wt (tumour mass): individual animals; for wt (tumour mass): day 18 after tumour injection
Lewis Lung Carcinoma [4] = experiment: Lewis Lung Carcinoma, second set of experiments; assay type: in vivo, female mice C57Bl/6; conditions: 12 days after tumour injection; for Weight of tumour: individual animals
Lewis Lung Carcinoma [5] = experiment: Lewis Lung Carcinoma, third set of experiments (with MDP); assay type: in vivo, female mice C57BI/6; conditions: group 4: P1 17.5 mg/kg i.p. day -13
Description: The tested compound was Ala-Leu-Phe = P1 (SF080) (17.5 mg/kg) in the model of tumour disease caused by Lewis Lung Carcinoma. The compound was also evaluated in combination with muramyl dipeptide (MDP).
Animals: female mice C57BI/6 (Charles River) the average weight of which was 20g were used. The experiment involved overall 48 mice.
The tumour cells of LLC were obtained from the fourth passage of tumour cells. The total number of cells was 2 x 10^5 in 0.1 ml of Hanks solution. The cells were injected subcutaneously into axillary region.
The peptide P1 was administered i.p. in suspension with propylenglycol (0.1 ml/50 ml) in physiological solution. […] The same way of administration as in tested animals (i.p.) was used.
The animals were divided into 4 groups each having 12 mice. In groups 2 and 3 MDP was administered subcutaneously in a dose of 100 µg (0.5 ml physiol. solution per mouse). The protocol of the test is as follows.
The animals in all groups were observed daily for tumour growth. In the control group the tumour growth was so rapid and the animals were in such a condition that the experiment was terminated after 18 days from the administration of tumour cells. Mice were sacrificed and tumour mass was excised and weighed. Both lobes of lungs were inspected for the presence of metastases.
The following parameters have been evaluated in this experiment: • a) the percentage of animals not having the tumour • b) the average weight of the tumour • c) the percentage of animals with metastases in lungs • d) the average number of metastases in case of positive animals
Statistical analysis was performed by the method of one factorial analysis of variance (ANOVA), Dunnett's test and chi-square test. […]

MHV3 virus = experiment: Hepatic protection upon MHV3 virus infection; assay type: in vivo, mice of the BDF1 strain
[6] = group B 3 x P3, 17.5 mg/kg i.p. day -7, 0, 7
[7] = group C 2 x P3, 17.5 mg/kg i.p. day -7, 0
[8] = group D 1 x P3, 17.5 mg/kg i.p. day 0
[9] = group E 2 x P3, 17.5 mg/kg i.p. day 0, 7
[10] = group B 3 x P1, 17.5 mg/kg i.p. day -7, 0, 7
[11] = group C 2 x P1, 17.5 mg/kg i.p. day 0, 7
[12] = group D 1 x P1, 17.5 mg/kg i.p. day 0
[13] = group E 2 x P1, 17.5 mg/kg i.p. day -7, 0

## CC(=O)N[C@@H](CC(C)C)C(=O)N[C@@H](Cc1ccccc1)C(=O)N[C@@H](C)C(=O)O [P3, monoacetic derivative of the tripeptide Leu-Phe-Ala] (Ac-Leu-Phe-Ala-OH)
NK lymphocytes; Lot A: normoergic germ free animals
  increase in rosette-forming lymphocytes with respect to controls: 100%
NK lymphocytes; Lot B: animals previously immunized with muramyl dipeptide
  increase in rosette formation: greater than 200%
[1]
  effects on the studied organs (production of immunoantibodies): no significant effects
Lewis Lung Carcinoma [2]
  mean weight of the metastases: 35 mg
  mean weight of the metastases, lower in comparison with controls: 70%
  mean weight of the neoplasm: 4.2 g
  mean weight of the neoplasm, lower in comparison with controls: 30%
  number of mice developing metastases, lower in comparison with controls: 30%
Lewis Lung Carcinoma [3]; [6]
  meta, AVG: 1.1
  wt (tumour mass), AVG: 1.79
  meta (metastases in lungs): 3 and 0 (4×) and 1 (4×) and 4
  wt (tumour mass): 3.9 and 0.1 (2×) and 2.9 and tumour-free (2×) and 0.2 and 1 and 3.3 and 0.4 and 1.9 and 4.1
Lewis Lung Carcinoma [3]; group B 3 x P3, day -7, 0, 7
  tumour, number of animals: 10
  tumour, share of animals: 83%
  tumour-free, number of animals: 2
  tumour-free, share of animals: 16.7%
Lewis Lung Carcinoma [3]; [7]
  meta, AVG: 2.5
  wt (tumour mass), AVG: 2.69
  meta (metastases in lungs): 1 (4×) and 2 and 4 (4×) and 5 and 0 and 3
  wt (tumour mass): 0.3 and 3.4 (2×) and 4.2 and 2.5 and 2.3 and 0.1 and 3.7 and 3.3 and 3 and 3.2 and 2.9
Lewis Lung Carcinoma [3]; group C 2 x P3, day -7, 0
  tumour, number of animals: 12
  tumour, share of animals: 100%
  tumour-free, number of animals: 0
  tumour-free, share of animals: 0%
Lewis Lung Carcinoma [3]; [8]
  meta, AVG: 2.8
  wt (tumour mass), AVG: 3.43
  meta (metastases in lungs): 2 (4×) and 6 and 4 and 5 and 3 and 1 (2×)
  wt (tumour mass): 3.3 and 3.1 (2×) and 4.2 and 3.7 and 2.9 and tumour-free and 2.8 and 3.9 and 3 and 4.3
Lewis Lung Carcinoma [3]; group D 1 x P3, day 0
  tumour, number of animals: 10
  tumour, share of animals: 90.9%
  tumour-free, number of animals: 1
  tumour-free, share of animals: 9.1%
Lewis Lung Carcinoma [3]; [9]
  meta, AVG: 3.25
  wt (tumour mass), AVG: 2.46
  meta (metastases in lungs): 7 and 1 (4×) and 0 and 12 and 3
  wt (tumour mass): 2.1 and 0.9 (2×) and 2.2 and tumour-free (3×) and 3.8 and 3.7 and 2.5 and 3.6
Lewis Lung Carcinoma [3]; group E 2 x P3, day 0, 7
  tumour, number of animals: 8
  tumour, share of animals: 72.7%
  tumour-free, number of animals: 3
  tumour-free, share of animals: 27.3%

## CC(=O)N[C@@H](C)C(=O)N[C@@H](CC(C)C)C(=O)N[C@@H](Cc1ccccc1)C(=O)O [P1, monoacetic derivative of the tripeptide Ala-Leu-Phe] (Ac-Ala-Leu-Phe-OH)
Lewis Lung Carcinoma [4]; [10]
  Weight of tumour, AVG: 0.875 g
  Weight of tumour, SUM: 8.75 g
  Weight of tumour: 0.63 g and 0.8 g and 0.75 g (2×) and 0.9 g and 0.89 g and 1.08 g and 0.66 g and 1.44 g and 0.85 g
Lewis Lung Carcinoma [4]; [11]
  Weight of tumour, AVG: 1.325 g
  Weight of tumour, SUM: 13.25 g
  Weight of tumour: 0.85 g and 1.69 g and 1.51 g and 1.67 g and 0.6 g and 1.48 g and 0.96 g and 1.27 g and 1.58 g and 1.64 g
Lewis Lung Carcinoma [4]; [12]
  Weight of tumour, AVG: 1.29 g
  Weight of tumour, SUM: 12.9 g
  Weight of tumour: 1.07 g and 1.35 g and 1.2 g and 1.48 g and 1.61 g and 1.7 g and 0.98 g and 1.25 g and 1.04 g and 1.22 g
Lewis Lung Carcinoma [4]; [13]
  Weight of tumour, AVG: 1.204 g
  Weight of tumour, SUM: 12.04 g
  Weight of tumour: 0.88 g and 0.63 g and 1.37 g (2×) and 1.17 g and 1.53 g and 1.77 g and 0.82 g and 1.18 g and 1.32 g
Lewis Lung Carcinoma [5]; day 18
  Weight of tumours, AVG: 2.42 g
  Weight of tumours, SUM: 26.63 g
  average number of metastases, AVG: 0.91
  metastase free animals: 67%
  number of metastases, SUM: 10
  tumour-free animals: 8%
Lewis Lung Carcinoma [5]; individual animals, lungs, day 18, 17.5 mg/kg
  number of metastases (meta): 0 (8×) and 1 and 3 and 4 and 2
Lewis Lung Carcinoma [5]; individual animals, 18 days after tumour cells, 17.5 mg/kg
  Weight of tumours: 2.14 g and 4.55 g and 3.4 g and 1.2 g and 1.6 g and 0 g and 3.53 g and 0.47 g and 3.77 g and 3.09 g and 2.26 g and 0.62 g
MHV3 virus; autopsy after death, histologic preparations
  histologic examination of the livers: do not show any histologic sign of any damage
MHV3 virus; day 5 from the infection with MHV3 virus
  average value of hepatic transaminases (GOT and GPT), lower than that of the control group: about 50%
